Results reported in the supplement of paper PMC12823440, “Inhibitors supercharge kinase turnover through native proteolytic circuits” (Nature, 2025).
Where a name gives a salt, the structure may show the parent alone. This is one part of the list. The calls rarely recur for the same compound in another form.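 Kinases were expressed as nanoluciferase fusions in K562 cells and luminescence was read every 4 h between 2 and 18 h as percent of control, DMSO set to 100% and a positive control to 0%. A time point counts as decreased when the signal drops significantly (2 sigma). The hit call is the authors' own, does not follow from the count of time points alone, and its rule is not shown.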

Sequences of proteins named here, by UniProt entry; tags and fusion partners are left off. A change or cut given only in a name is not applied to a line headed by its entry.
UniProt P00519, whole entry: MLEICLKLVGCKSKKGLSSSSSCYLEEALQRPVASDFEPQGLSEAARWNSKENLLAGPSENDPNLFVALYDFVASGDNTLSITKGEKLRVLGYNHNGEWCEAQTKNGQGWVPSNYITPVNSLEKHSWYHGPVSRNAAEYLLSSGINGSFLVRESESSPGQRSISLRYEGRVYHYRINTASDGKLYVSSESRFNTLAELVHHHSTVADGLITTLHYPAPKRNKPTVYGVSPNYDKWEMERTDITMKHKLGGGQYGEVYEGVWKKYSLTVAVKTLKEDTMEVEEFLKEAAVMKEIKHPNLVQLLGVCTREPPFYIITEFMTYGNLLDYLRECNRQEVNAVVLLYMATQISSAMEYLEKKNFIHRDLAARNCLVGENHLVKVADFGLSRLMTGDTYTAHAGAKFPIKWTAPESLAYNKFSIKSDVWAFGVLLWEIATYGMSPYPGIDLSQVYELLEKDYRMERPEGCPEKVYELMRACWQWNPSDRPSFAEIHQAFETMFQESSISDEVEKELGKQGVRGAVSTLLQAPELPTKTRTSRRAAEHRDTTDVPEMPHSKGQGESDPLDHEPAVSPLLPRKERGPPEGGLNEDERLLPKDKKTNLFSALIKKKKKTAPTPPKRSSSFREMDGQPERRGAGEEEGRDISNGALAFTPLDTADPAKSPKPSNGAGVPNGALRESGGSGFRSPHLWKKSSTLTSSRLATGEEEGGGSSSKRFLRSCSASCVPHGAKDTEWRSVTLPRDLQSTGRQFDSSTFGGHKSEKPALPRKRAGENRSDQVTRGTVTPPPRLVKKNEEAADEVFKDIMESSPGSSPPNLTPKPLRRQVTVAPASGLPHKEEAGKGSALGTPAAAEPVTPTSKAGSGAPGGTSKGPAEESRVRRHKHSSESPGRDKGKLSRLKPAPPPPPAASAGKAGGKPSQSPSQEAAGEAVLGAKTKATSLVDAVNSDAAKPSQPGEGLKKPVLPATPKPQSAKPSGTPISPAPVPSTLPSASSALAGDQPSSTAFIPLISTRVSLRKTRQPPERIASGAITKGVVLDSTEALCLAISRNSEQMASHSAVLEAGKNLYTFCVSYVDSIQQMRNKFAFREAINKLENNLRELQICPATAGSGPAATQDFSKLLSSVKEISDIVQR
UniProt P31749: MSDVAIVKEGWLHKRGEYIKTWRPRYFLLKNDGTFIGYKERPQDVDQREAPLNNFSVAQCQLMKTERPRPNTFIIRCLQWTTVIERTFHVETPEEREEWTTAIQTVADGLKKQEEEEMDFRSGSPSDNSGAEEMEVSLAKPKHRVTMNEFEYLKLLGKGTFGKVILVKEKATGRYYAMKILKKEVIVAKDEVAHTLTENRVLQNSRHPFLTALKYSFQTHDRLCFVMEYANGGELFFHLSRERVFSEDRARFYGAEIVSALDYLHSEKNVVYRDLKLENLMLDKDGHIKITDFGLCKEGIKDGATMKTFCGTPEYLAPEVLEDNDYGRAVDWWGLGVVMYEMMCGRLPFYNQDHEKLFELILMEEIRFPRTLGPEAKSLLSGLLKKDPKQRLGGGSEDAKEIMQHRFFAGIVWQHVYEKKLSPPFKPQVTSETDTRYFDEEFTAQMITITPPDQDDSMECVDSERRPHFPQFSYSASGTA
UniProt Q9UM73: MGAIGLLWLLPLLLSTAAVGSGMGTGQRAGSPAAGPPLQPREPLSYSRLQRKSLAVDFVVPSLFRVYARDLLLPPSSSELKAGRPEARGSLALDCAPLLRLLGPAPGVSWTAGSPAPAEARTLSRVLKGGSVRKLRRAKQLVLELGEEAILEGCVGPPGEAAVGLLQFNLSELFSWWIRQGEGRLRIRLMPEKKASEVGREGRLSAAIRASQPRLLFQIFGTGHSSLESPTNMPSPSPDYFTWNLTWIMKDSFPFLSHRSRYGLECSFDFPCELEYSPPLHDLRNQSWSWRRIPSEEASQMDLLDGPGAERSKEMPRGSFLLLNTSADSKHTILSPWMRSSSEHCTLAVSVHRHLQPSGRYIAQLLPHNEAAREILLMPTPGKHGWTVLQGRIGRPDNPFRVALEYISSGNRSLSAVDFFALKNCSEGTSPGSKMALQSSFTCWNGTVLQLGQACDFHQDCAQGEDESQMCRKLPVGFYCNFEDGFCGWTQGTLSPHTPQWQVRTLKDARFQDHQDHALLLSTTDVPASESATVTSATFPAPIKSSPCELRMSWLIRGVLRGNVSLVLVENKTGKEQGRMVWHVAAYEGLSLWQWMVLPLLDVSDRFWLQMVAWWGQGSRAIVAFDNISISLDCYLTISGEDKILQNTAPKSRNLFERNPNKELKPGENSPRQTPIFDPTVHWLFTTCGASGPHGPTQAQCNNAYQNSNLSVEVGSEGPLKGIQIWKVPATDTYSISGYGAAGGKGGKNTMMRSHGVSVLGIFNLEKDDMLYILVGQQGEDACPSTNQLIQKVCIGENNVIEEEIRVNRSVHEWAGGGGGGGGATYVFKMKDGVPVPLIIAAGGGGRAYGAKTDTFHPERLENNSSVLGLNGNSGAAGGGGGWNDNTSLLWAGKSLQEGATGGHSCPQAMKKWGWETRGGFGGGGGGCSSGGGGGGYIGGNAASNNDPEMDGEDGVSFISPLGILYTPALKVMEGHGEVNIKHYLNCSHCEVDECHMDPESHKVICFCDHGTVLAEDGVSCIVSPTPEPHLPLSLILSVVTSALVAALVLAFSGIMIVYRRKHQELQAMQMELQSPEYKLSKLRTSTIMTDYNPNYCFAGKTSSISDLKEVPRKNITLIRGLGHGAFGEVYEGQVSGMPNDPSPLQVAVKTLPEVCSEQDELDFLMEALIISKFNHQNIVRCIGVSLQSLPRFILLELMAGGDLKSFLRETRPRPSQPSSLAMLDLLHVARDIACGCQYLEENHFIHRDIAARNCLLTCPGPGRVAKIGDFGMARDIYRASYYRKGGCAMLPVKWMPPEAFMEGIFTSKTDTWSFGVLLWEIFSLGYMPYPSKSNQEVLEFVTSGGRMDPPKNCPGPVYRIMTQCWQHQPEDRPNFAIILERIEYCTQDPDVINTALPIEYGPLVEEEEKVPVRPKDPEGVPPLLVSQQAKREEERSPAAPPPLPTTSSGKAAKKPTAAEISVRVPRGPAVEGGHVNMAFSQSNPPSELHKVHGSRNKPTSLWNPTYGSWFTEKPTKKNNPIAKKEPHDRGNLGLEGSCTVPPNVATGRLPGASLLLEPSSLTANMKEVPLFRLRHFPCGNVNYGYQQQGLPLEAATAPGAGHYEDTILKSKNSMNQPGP
UniProt P10398: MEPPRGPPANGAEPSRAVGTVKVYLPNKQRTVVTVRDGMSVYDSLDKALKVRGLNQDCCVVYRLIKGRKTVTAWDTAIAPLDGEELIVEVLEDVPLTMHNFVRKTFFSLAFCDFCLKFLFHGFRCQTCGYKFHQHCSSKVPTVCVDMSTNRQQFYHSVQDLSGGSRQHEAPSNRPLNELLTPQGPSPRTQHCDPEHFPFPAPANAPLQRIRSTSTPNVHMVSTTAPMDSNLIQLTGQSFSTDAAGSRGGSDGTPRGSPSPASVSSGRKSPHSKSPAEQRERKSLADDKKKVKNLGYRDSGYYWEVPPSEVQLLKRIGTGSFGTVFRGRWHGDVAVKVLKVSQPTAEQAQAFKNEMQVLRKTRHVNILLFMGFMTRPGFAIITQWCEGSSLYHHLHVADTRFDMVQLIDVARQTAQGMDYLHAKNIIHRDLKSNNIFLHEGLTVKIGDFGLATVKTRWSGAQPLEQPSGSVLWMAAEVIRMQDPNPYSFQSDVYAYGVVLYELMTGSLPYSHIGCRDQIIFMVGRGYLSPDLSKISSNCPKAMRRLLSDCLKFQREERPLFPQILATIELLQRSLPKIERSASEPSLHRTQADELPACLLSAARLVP
UniProt O14965: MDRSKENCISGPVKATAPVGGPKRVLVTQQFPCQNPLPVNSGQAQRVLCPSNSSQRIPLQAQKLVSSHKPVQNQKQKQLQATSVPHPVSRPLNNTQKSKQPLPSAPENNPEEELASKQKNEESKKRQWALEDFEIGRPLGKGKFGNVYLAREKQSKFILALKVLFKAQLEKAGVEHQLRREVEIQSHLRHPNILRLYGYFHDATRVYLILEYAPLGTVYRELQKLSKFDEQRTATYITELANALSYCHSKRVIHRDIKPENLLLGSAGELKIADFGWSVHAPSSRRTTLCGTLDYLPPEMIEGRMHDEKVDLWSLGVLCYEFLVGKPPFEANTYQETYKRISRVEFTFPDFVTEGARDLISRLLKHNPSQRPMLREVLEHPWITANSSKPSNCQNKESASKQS
UniProt Q96GD4, whole entry: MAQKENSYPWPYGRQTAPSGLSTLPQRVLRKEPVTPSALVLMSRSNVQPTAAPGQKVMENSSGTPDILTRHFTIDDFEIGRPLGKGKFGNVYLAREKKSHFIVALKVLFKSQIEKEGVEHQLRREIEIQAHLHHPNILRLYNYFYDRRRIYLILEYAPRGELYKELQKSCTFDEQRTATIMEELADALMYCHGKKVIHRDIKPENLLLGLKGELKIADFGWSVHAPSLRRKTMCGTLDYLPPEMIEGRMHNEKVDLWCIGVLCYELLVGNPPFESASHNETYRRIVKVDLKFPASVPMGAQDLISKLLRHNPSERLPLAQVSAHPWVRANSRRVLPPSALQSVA
UniProt Q9UQB9: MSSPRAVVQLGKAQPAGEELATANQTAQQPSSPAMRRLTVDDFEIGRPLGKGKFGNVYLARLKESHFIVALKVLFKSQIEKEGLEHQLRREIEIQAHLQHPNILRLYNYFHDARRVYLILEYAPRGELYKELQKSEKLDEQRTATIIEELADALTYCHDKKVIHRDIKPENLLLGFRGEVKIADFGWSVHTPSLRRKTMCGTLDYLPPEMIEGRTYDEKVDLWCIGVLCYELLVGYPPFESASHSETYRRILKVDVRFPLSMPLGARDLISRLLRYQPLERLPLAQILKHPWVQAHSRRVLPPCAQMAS
UniProt P51813: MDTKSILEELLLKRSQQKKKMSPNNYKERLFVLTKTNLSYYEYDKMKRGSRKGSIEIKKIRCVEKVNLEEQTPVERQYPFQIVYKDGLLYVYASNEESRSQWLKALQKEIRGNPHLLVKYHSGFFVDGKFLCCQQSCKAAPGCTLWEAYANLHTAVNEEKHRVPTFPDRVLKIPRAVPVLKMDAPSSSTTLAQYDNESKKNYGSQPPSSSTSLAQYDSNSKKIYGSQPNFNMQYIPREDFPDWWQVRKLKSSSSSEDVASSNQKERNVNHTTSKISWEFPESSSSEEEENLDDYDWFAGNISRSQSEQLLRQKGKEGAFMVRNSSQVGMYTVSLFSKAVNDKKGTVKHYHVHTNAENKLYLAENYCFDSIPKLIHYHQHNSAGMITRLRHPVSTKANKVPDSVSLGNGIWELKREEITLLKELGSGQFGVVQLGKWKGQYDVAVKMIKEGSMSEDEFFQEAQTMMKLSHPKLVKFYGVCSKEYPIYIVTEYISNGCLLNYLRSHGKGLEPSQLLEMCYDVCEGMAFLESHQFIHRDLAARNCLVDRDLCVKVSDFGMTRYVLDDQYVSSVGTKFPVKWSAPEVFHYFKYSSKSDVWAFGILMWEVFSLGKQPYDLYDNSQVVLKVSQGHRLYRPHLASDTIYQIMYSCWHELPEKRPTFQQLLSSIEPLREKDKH
UniProt P15056, whole entry, looked up: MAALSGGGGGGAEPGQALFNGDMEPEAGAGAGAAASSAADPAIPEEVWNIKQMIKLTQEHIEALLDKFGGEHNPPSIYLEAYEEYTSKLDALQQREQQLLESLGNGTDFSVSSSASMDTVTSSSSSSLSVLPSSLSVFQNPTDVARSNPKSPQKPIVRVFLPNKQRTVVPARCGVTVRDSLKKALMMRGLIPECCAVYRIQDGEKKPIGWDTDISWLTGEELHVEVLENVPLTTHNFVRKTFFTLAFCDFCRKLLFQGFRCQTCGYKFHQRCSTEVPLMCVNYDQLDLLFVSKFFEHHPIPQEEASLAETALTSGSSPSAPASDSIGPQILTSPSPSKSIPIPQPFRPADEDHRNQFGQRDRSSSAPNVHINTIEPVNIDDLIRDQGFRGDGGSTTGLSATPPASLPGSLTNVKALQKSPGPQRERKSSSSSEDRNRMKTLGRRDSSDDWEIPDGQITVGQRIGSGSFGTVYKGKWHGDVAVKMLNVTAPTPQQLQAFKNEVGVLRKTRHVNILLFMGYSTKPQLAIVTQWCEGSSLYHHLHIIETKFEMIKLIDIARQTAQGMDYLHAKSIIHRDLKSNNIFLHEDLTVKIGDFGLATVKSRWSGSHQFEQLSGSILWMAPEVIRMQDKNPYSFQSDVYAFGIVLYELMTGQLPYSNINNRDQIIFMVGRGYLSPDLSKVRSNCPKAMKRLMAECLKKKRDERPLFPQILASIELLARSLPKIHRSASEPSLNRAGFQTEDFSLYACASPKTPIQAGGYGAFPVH

Tests used:
Assay in all cases: kinase-Nluc reporter destabilization hit call (1 = scored as downregulated) (binary); higher = compound decreases kinase abundance
Settings in all cases: K562; 2-18 h
ABL1 = ABL1 (UniProt P00519)
AKT1 = AKT1 (UniProt P31749)
ALK = ALK (UniProt Q9UM73)
ARAF = ARAF (UniProt P10398)
AURKA = AURKA (UniProt O14965)
AURKB = AURKB (UniProt Q96GD4)
AURKC = AURKC (UniProt Q9UQB9)
BLK = BLK (UniProt P51451)
BMX = BMX (UniProt P51813)
BRAF = BRAF (UniProt P15056)

Measured: kinase-Nluc reporter destabilization hit call

CN1CCC(c2cc(-c3ccncc3)c(-c3ccc(F)cc3)[nH]2)CC1 (10 µM)
inactive: ABL1 = 0 | AKT1 = 0 | ALK 0 | ARAF 0 | AURKA 0 | AURKB 0 | AURKC 0 | BLK 0 | BMX 0 | BRAF 0

CCC(C)N1c2ccccc2C(=O)N(C)c2cnc(Nc3ccc(C(=O)N4CCC(N5CCN(C)CC5)CC4)cc3OC)nc21 (stereo not given) (2.5 µM)
inactive: ABL1 = 0 | AKT1 = 0 | ALK 0 | ARAF 0 | AURKA 0 | AURKB 0 | AURKC 0 | BLK 0 | BMX 0 | BRAF 0

C[C@H](c1ccnc(Nc2nc3ccc(-c4cc(N(C)C)ncn4)cc3[nH]2)c1)N1CCN(C(=O)CC(F)(F)F)CC1 (2.5 µM)
inactive: ABL1 = 0 | AKT1 = 0 | ALK 0 | ARAF 0 | AURKA 0 | AURKB 0 | AURKC 0 | BLK 0 | BMX 0 | BRAF 0

CCN1CCN(Cc2ccc(Nc3ncc(F)c(-c4cc(F)c5nc(C)n(C(C)C)c5c4)n3)nc2)CC1 [Abemaciclib] (2 µM)
inactive: ABL1 = 0 | AKT1 = 0 | ALK 0 | ARAF 0 | AURKA 0 | AURKB 0 | AURKC 0 | BLK 0 | BMX 0 | BRAF 0

C[C@@H](c1ccc(F)cc1)n1nnc2cnc3ccc(-c4ccc5ocnc5c4)cc3c21 (10 µM)
inactive: ABL1 = 0 | AKT1 = 0 | ALK 0 | ARAF 0 | AURKA 0 | AURKB 0 | AURKC 0 | BLK 0 | BMX 0 | BRAF 0

C=CC(=O)Nc1ccc(CN2C(=O)N(c3cc(OC)cc(OC)c3)Cc3cnc(Nc4ccc(N5CCN(C)CC5)cc4)nc32)cc1 (2.5 µM)
inactive: ABL1 = 0 | AKT1 = 0 | ALK 0 | ARAF 0 | AURKA 0 | AURKB 0 | AURKC 0 | BMX 0 | BRAF 0
active: BLK 1

COc1cc(/C=C/C(=O)NCC(O)c2ccc(O)cc2)ccc1O (stereo not given) [N-Feruloyloctopamine] (2.5 µM)
inactive: ABL1 = 0 | AKT1 = 0 | ALK 0 | ARAF 0 | AURKA 0 | AURKB 0 | AURKC 0 | BLK 0 | BMX 0 | BRAF 0

FC(F)(F)c1ccc(CNc2ccc(Cc3c[nH]c4ncccc34)cn2)cc1 (10 µM)
inactive: ABL1 = 0 | AKT1 = 0 | ALK 0 | ARAF 0 | AURKA 0 | AURKB 0 | AURKC 0 | BLK 0 | BMX 0 | BRAF 0

CCOC(=O)N1CCN(C(=O)[C@H](Cc2cccc(C(=N)N)c2)NS(=O)(=O)c2c(C(C)C)cc(C(C)C)cc2C(C)C)CC1 (10 µM)
inactive: ABL1 = 0 | AKT1 = 0 | ALK 0 | ARAF 0 | AURKA 0 | AURKB 0 | AURKC 0 | BLK 0 | BMX 0 | BRAF 0

CS(=O)(=O)Nc1cc(-c2ccc3ncnc(Nc4ccc(F)c(Cl)c4)c3c2)cnc1Cl (2.5 µM)
inactive: ABL1 = 0 | AKT1 = 0 | ALK 0 | ARAF 0 | AURKA 0 | AURKB 0 | AURKC 0 | BLK 0 | BMX 0 | BRAF 0

Cc1cc(O)c2c(c1)C(=O)c1cc(O)cc(O)c1C2=O [Emodin] (10 µM)
inactive: ABL1 = 0 | AKT1 = 0 | ALK 0 | ARAF 0 | AURKA 0 | AURKB 0 | AURKC 0 | BLK 0 | BMX 0 | BRAF 0

C[C@@H](c1ccc(-c2ccccc2)c(F)c1)c1cc(NC(=N)N2CCOCC2)on1 [Rimacalib] (10 µM)
inactive: ABL1 = 0 | AKT1 = 0 | ALK 0 | ARAF 0 | AURKA 0 | AURKB 0 | AURKC 0 | BLK 0 | BMX 0 | BRAF 0

Cc1c(NC(=O)c2cccn(-c3ccc(F)cc3)c2=O)ccc(Oc2ccnc(NC(=O)C3CC3)c2)c1C (2 µM)
inactive: ABL1 = 0 | AKT1 = 0 | ALK 0 | ARAF 0 | AURKA 0 | AURKB 0 | AURKC 0 | BLK 0 | BMX 0 | BRAF 0

COc1cc2ncc(-c3ccccc3)nc2cc1OC [Tyrphostin AG1296] (10 µM)
inactive: ABL1 = 0 | AKT1 = 0 | ALK 0 | ARAF 0 | AURKA 0 | AURKB 0 | AURKC 0 | BLK 0 | BMX 0 | BRAF 0

CCCCCCCCCCCCC/C=C/[C@@H](O)[C@@H](N)CO [D-erythro-Sphingosine] (2.5 µM)
inactive: ABL1 = 0 | AKT1 = 0 | ALK 0 | ARAF 0 | AURKA 0 | AURKB 0 | AURKC 0 | BLK 0 | BMX 0 | BRAF 0

O=C1N[C@@H](Cc2c[nH]c3ccccc23)C(=O)N2CCC[C@@H]12 [Brevianamide F] (10 µM)
inactive: ABL1 = 0 | AKT1 = 0 | ALK 0 | ARAF 0 | AURKA 0 | AURKB 0 | AURKC 0 | BLK 0 | BMX 0 | BRAF 0

Cc1cc(=O)oc2c(C=O)c(O)ccc12 (10 µM)
inactive: ABL1 = 0 | AKT1 = 0 | ALK 0 | ARAF 0 | AURKA 0 | AURKB 0 | AURKC 0 | BLK 0 | BMX 0 | BRAF 0

NCCNS(=O)(=O)c1cccc2c(Cl)cccc12 [A-3 (hydrochloride)] (10 µM)
inactive: ABL1 = 0 | AKT1 = 0 | ALK 0 | ARAF 0 | AURKA 0 | AURKB 0 | AURKC 0 | BLK 0 | BMX 0 | BRAF 0

NC(=O)c1nnc(N[C@@H]2CCCC[C@@H]2N)nc1Nc1cccc2cc[nH]c12 (10 µM)
inactive: ABL1 = 0 | AKT1 = 0 | ALK 0 | ARAF 0 | AURKA 0 | AURKB 0 | AURKC 0 | BLK 0 | BMX 0 | BRAF 0

c1cc(-c2c[nH]c3nccc(N4CCC[C@@]5(CCCCN5)C4)c23)ncn1 (10 µM)
inactive: ABL1 = 0 | AKT1 = 0 | ALK 0 | ARAF 0 | AURKA 0 | AURKB 0 | AURKC 0 | BLK 0 | BMX 0 | BRAF 0

O=c1[nH]c(=O)n([C@@H]2O[C@H](CO)[C@@H](O)[C@@H]2O)cc1/C=C/Br [Sorivudine] (10 µM)
inactive: ABL1 = 0 | AKT1 = 0 | ALK 0 | ARAF 0 | AURKA 0 | AURKB 0 | AURKC 0 | BLK 0 | BMX 0 | BRAF 0

CC1CCc2c(cc(Br)c(F)c2Br)N1C=O (stereo not given) (10 µM)
inactive: ABL1 = 0 | AKT1 = 0 | ALK 0 | ARAF 0 | AURKA 0 | AURKB 0 | AURKC 0 | BLK 0 | BMX 0 | BRAF 0

C[C@]1(O)CCN(c2nc(N3C[C@H](O)[C@@H](O)C3)cc(C(F)(F)F)c2C#N)C1 (10 µM)
inactive: ABL1 = 0 | AKT1 = 0 | ALK 0 | ARAF 0 | AURKA 0 | AURKB 0 | AURKC 0 | BLK 0 | BMX 0 | BRAF 0

Nc1ccc(-c2cnc(N)c(-c3ccc(Cl)cc3)c2)cn1 (10 µM)
inactive: ABL1 = 0 | AKT1 = 0 | ALK 0 | ARAF 0 | AURKA 0 | AURKB 0 | AURKC 0 | BLK 0 | BMX 0 | BRAF 0

Cn1nccc1Nc1nccc(-c2ccn([C@H](CO)c3ccc(Cl)c(F)c3)c(=O)c2)n1 [Ravoxertinib] (10 µM)
inactive: ABL1 = 0 | AKT1 = 0 | ALK 0 | ARAF 0 | AURKA 0 | AURKB 0 | AURKC 0 | BLK 0 | BMX 0 | BRAF 0

Cc1cc(CN2CCN(c3c(Br)cnc4nc(-c5ccc(N6CCN(C)CC6)cc5)[nH]c34)CC2)no1 (2.5 µM)
inactive: ABL1 = 0 | AKT1 = 0 | ALK 0 | ARAF 0 | AURKA 0 | AURKB 0 | AURKC 0 | BLK 0 | BMX 0 | BRAF 0

NC(=O)c1ccc2[nH]ccc2c1 (10 µM)
inactive: ABL1 = 0 | AKT1 = 0 | ALK 0 | ARAF 0 | AURKA 0 | AURKB 0 | AURKC 0 | BLK 0 | BMX 0 | BRAF 0

CCN1CCC(n2cc(CNc3cc(Cl)c4ncc(C#N)c(Nc5ccc(F)c(Cl)c5)c4c3)nn2)CC1 [Cot inhibitor-2] (2.5 µM)
inactive: ABL1 = 0 | AKT1 = 0 | ALK 0 | ARAF 0 | AURKA 0 | AURKB 0 | AURKC 0 | BLK 0 | BMX 0 | BRAF 0

CN1CCN(c2cnc3c(C4CCN(C(=O)c5ccc(OC(F)(F)F)cc5N)CC4)ncnc3c2)CC1 (10 µM)
inactive: ABL1 = 0 | AKT1 = 0 | ALK 0 | ARAF 0 | AURKA 0 | AURKB 0 | AURKC 0 | BLK 0 | BMX 0 | BRAF 0

Nc1nc(F)nc2c1ncn2[C@@H]1O[C@H](CO)[C@@H](O)[C@@H]1O [Fludarabine] (10 µM)
inactive: ABL1 = 0 | AKT1 = 0 | ALK 0 | ARAF 0 | AURKA 0 | AURKB 0 | AURKC 0 | BLK 0 | BMX 0 | BRAF 0
